According to patent EP0394283B1, “USE OF A TRIPEPTIDE FOR THE PREPARATION OF PHARMACEUTICAL COMPOSITIONS AND A PHARMACEUTICAL COMPOSITION AND METHOD” (Hafslund Nycomed AS, priority 1987, dated 1992):
Not every detail of the peptide structures is certain; ends, links or a residue may be inferred. Residues, ends and D or L forms follow the SMILES beside them.

How the values were obtained:
[1] = system: large intestinal epithelium; assay: Mitotic rate (Colcemid-arrested metaphases per 500 crypt cells) in the large intestinal epithelium after i.p. injection; assay type: in vivo, hairless mice
Description: All in vivo experiments were performed with hairless mice at 0800-0900 AM. The fractions were suspended in distilled water, slightly acidified (pH=6) and injected i.p. at different doses dependent on the purity of the fraction. The controls received solvent only. The pattern of cell proliferation after injecting the peptide was examined by varying the time between treatment and sacrifice.
Two hours before sacrifice (except for the experiments testing tissue specificity in the kidney) all animals received Colcemid 0.15 mg per animal i.p. ³HTdR (tritiated thymidine) was injected 30 minutes before sacrifice (30 µCi per animal i.p.).
The effects of a hemoregulatory pentapeptide (U.S. Patent 4,499,081) and of a mitosis-inhibiting pentapeptide isolated from mouse epidermis (WO 87/00180) were tested by examining the mitotic rates in the small and large intestine at a dose of 10⁻¹² mole per animal in an identical experimental setting as described for the tripeptide.
Mitotic rate: After routine dehydration and paraffin embedding, sections were cut at 5 µm and stained with haematoxylin. Colcemid-arrested mitoses per 500 crypt cells were determined in ten longitudinally cut crypts in ileum and colon. Only crypts that were cut strictly longitudinally were accepted, viz., only those where the lumen of the crypt could be followed from the bottom of the gland to the lumen of the gut. No telophases were seen. The number of accumulated metaphases in epidermis was determined by counting 25 vision fields of interfollicular epidermis (eyepiece 12.5, objective 40) and expressed as mitoses per vision field per 2h.

[2] = system: large intestinal epithelium; assay: Labelling index (3HTdR-labelled cells per 500 crypt cells) in the large intestinal epithelium after i.p. injection; assay type: in vivo, hairless mice; conditions: 10⁻¹² mole per animal
[3] = system: colon carcinoma cell line HT 29; assay: Proliferation of colon carcinoma cell line HT 29, incorporation of tritiated thymidine; assay type: cell-based; conditions: 10⁻⁸ M
[4] = system: kidney tubular epithelium; assay: Tissue specificity test: mitotic rate in kidney after unilateral nephrectomy; assay type: in vivo, hairless mice; conditions: proliferation induced by contralateral nephrectomy; treated 18h after surgery, sacrifice at 42h
small intestine = assay: Tissue specificity test: cell proliferation in the small intestine (ileum); assay type: in vivo, hairless mice; conditions: at the time and dose levels tested
epidermis = assay: Tissue specificity test: cell proliferation in epidermis (back skin); assay type: in vivo, hairless mice; conditions: at the time and dose levels tested

NCCCC[C@H](NC(=O)[C@H](CS)NC(=O)[C@H](CC(=O)O)NC(=O)[C@H](CCC(=O)O)NC(=O)[C@@H]1CCC(=O)N1)C(=O)O [pGlu-Glu-Asp-Cys-Lys, reference compound] (HELM PEPTIDE1{[Glp].E.D.C.K}$$$$V2.0)
cell proliferation in the large intestinal epithelium ([1]; dose of 10⁻¹² mole per animal, at the doses and times tested): unchanged

O=C(O)CNC(=O)[C@H](Cc1c[nH]cn1)NC(=O)[C@@H]1CCC(=O)N1 [tripeptide, L-pyroglutamyl-L-histidyl-glycine] (HELM PEPTIDE1{[Glp].H.G}$$$$V2.0)
reduced LI ([2]; 15 and 18h after treatment): not statistically significant | labelling index (LI) ([2]; 4h after injection): pronounced reduction | number of labelled cells (labelling index) ([2]; approximately 8h after the first decrease): second inhibition of the same degree | incorporation of ³HTdR ([3]; 1% fetal calf serum, 24-30h after the treatment): significant reduction | incorporation of ³HTdR (growth) ([3]; serum addition increased to 10%): varied between significant inhibition of growth and no effect | inhibitory effect on cell proliferation in kidney tubular epithelium [4]: No inhibitory effect | inhibitory effect on cell proliferation in the small intestine (small intestine): No inhibitory effect | number of accumulated metaphases reduced (mitotic rate in the large intestinal epithelium) ([1]; dose of 10⁻¹² mole per animal, i.p.): more than 50% | mitotic rate in the large intestinal epithelium ([1]; dose of 10⁻¹¹ mole per animal, i.p.): smaller, but significant inhibition | mitotic rate in the large intestinal epithelium ([1]; doses higher than 10⁻¹¹ or lower than 10⁻¹² mole per animal, i.p.): no significant decrease in cell proliferation | number of accumulated metaphases (time course of the mitotic rate) ([1]; single i.p. injection, 10⁻¹² mole per animal, 2-4h after injection): significantly reduced | mitotic rate (time course) ([1]; single i.p. injection, 10⁻¹² mole per animal, approximately 15h after injection, less pronounced than the first): new wave of inhibition | mitotic count in the treated group (time course of the mitotic rate) ([1]; single i.p. injection, 10⁻¹² mole per animal, period of 6-8h following the first inhibition, not formally significant): exceeded the control level | inhibitory effect on cell proliferation in epidermis (epidermis): No inhibitory effect
